Record: PubChem BioAssay AID602196 (INSERM, 2012)

- Screen: 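Modifiers of cisplatin sensitivity in A549 cells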
- Cells: human A549 lung cancer cells
- Reagent: siRNA pair against human genes
- Duration: 48 h transfection before cisplatin; time from cisplatin to read-out not stated
- Treatment: cisplatin at a dose killing half of control-siRNA cells; exact dose and duration not given
- Measurement: 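Cisplatin cell death as a shift from the 50% death seen with control siRNA; siRNAs toxic or growth-blocking alone scored 0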
- Scale: two-siRNA summed score (-2 to +2): higher = both siRNAs protect from cisplatin killing; -2 means both sensitise; mean protection from cisplatin (shift in death): higher = protection from cisplatin killing
- Rule for the call: 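Each siRNA scores 0 if harmful alone by LDH or WST-1, otherwise +1 if it reduces and -1 if it increases cisplatin killing; a gene is active when both siRNAs agree (sum +2 or -2)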
- Calls: active = both siRNAs shift cisplatin killing the same way; inactive = no consistent shift, or siRNA harmful alone
The whole screen tested about 23,000 reagents; shown is a part drawn at random. Over the whole deposit, 455 (2%) got an active call. 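Active includes both protection and sensitisation; some change values fall well beyond the stated -50 to +50 range.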 Entries without a mark were called inactive. Not all columns of the deposit are shown. The record does not give: the amount of reagent.

After knock-down of MCPH1 (microcephalin 1) the results were two-siRNA summed score (-2 to +2) = 0; mean protection from cisplatin (shift in death) (%) = -2.5. For HCRTR1 (hypocretin receptor 1), the values are two-siRNA summed score (-2 to +2) = 0; mean protection from cisplatin (shift in death) (%) = -4.3. With knock-down of LRRC25 (leucine rich repeat containing 25), the record shows two-siRNA summed score (-2 to +2) = 0; mean protection from cisplatin (shift in death) (%) = 2.2. Silencing of OR6B1 (olfactory receptor family 6 subfamily B member 1) gave: two-siRNA summed score (-2 to +2) = 0; mean protection from cisplatin (shift in death) (%) = 18.3. SYNJ2BP (synaptojanin 2 binding protein) scored two-siRNA summed score (-2 to +2) = 0; mean protection from cisplatin (shift in death) (%) = 2.9. Silencing of PRKCD (protein kinase C delta) gave: two-siRNA summed score (-2 to +2) = -1; mean protection from cisplatin (shift in death) (%) = -7.4.

Silencing of SSBP1 (single stranded DNA binding protein 1) gave: two-siRNA summed score (-2 to +2) = 0; mean protection from cisplatin (shift in death) (%) = 1.9. After knock-down of MEP1A (meprin A subunit alpha), the record shows two-siRNA summed score (-2 to +2) = 0; mean protection from cisplatin (shift in death) (%) = -9.9. LOC440616 gave two-siRNA summed score (-2 to +2) = 0; mean protection from cisplatin (shift in death) (%) = 7.6. PIGH (phosphatidylinositol glycan anchor biosynthesis class H) showed two-siRNA summed score (-2 to +2) = 0; mean protection from cisplatin (shift in death) (%) = 4.1. With knock-down of FLJ34236, the screen gave two-siRNA summed score (-2 to +2) = 0; mean protection from cisplatin (shift in death) (%) = -2.2. Knock-down of GON7 (GON7 subunit of KEOPS complex) gave: two-siRNA summed score (-2 to +2) = 0; mean protection from cisplatin (shift in death) (%) = -3.2.

With knock-down of DYNC2I1 (dynein 2 intermediate chain 1), the screen gave two-siRNA summed score (-2 to +2) = 0; mean protection from cisplatin (shift in death) (%) = 0.7. With knock-down of DZIP1L (DAZ interacting zinc finger protein 1 like), the screen gave two-siRNA summed score (-2 to +2) = -1; mean protection from cisplatin (shift in death) (%) = -9.3. Silencing of IL12B (interleukin 12B) resulted in: two-siRNA summed score (-2 to +2) = 0; mean protection from cisplatin (shift in death) (%) = -5.4. For TAF4 (TATA-box binding protein associated factor 4), the values are two-siRNA summed score (-2 to +2) = 0; mean protection from cisplatin (shift in death) (%) = 17.2. For LOC389934, the entry reads two-siRNA summed score (-2 to +2) = -1; mean protection from cisplatin (shift in death) (%) = -7.8. Against FBXO28 (F-box protein 28) the deposit lists two-siRNA summed score (-2 to +2) = 0; mean protection from cisplatin (shift in death) (%) = 0.3.

Silencing of TMEM169 (transmembrane protein 169) resulted in: two-siRNA summed score (-2 to +2) = 0; mean protection from cisplatin (shift in death) (%) = -0.9. PGBDF (plakoglobin binding and degradation factor) gave two-siRNA summed score (-2 to +2) = 0; mean protection from cisplatin (shift in death) (%) = -4.1. LOC442705 showed two-siRNA summed score (-2 to +2) = 0; mean protection from cisplatin (shift in death) (%) = -0.8. With knock-down of SCML4 (Scm polycomb group protein like 4), the record shows two-siRNA summed score (-2 to +2) = 0; mean protection from cisplatin (shift in death) (%) = 4.1. For PRRT3 (proline rich transmembrane protein 3), the entry reads two-siRNA summed score (-2 to +2) = -1; mean protection from cisplatin (shift in death) (%) = -0.2.

Part of the list above, set out differently:
{"target gene":"PRKCD (protein kinase C delta)","two-siRNA summed score (-2 to +2)":-1,"mean protection from cisplatin (shift in death) (%)":-7.4}
{"target gene":"SSBP1 (single stranded DNA binding protein 1)","two-siRNA summed score (-2 to +2)":0,"mean protection from cisplatin (shift in death) (%)":1.9}
{"target gene":"MEP1A (meprin A subunit alpha)","two-siRNA summed score (-2 to +2)":0,"mean protection from cisplatin (shift in death) (%)":-9.9}
{"target gene":"LOC440616","two-siRNA summed score (-2 to +2)":0,"mean protection from cisplatin (shift in death) (%)":7.6}
{"target gene":"PIGH (phosphatidylinositol glycan anchor biosynthesis class H)","two-siRNA summed score (-2 to +2)":0,"mean protection from cisplatin (shift in death) (%)":4.1}
{"target gene":"FLJ34236","two-siRNA summed score (-2 to +2)":0,"mean protection from cisplatin (shift in death) (%)":-2.2}

More records follow.
ZNF33A (zinc finger protein 33A) scored two-siRNA summed score (-2 to +2) = 1; mean protection from cisplatin (shift in death) (%) = 2. Depletion of LINC00701 (long independently transcribed non-coding RNA 701) resulted in: two-siRNA summed score (-2 to +2) = 0; mean protection from cisplatin (shift in death) (%) = 5.4. LOC400876 gave two-siRNA summed score (-2 to +2) = 1; mean protection from cisplatin (shift in death) (%) = 13.1. Silencing of LOC347544 gave: two-siRNA summed score (-2 to +2) = 0; mean protection from cisplatin (shift in death) (%) = 4.8. Against CYP46A1 (cytochrome P450 family 46 subfamily A member 1), the entry reads two-siRNA summed score (-2 to +2) = 0; mean protection from cisplatin (shift in death) (%) = -8.1. With knock-down of CSAG3 (CSAG family member 3) the results were two-siRNA summed score (-2 to +2) = 1; mean protection from cisplatin (shift in death) (%) = 11.2.

Silencing of ABCC4 (ATP binding cassette subfamily C member 4 (PEL blood group)) resulted in: two-siRNA summed score (-2 to +2) = -1; mean protection from cisplatin (shift in death) (%) = -11.2. Against CCN3 (cellular communication network factor 3) the deposit lists two-siRNA summed score (-2 to +2) = 0; mean protection from cisplatin (shift in death) (%) = 3.9. NTMT1 (N-terminal Xaa-Pro-Lys N-methyltransferase 1) gave two-siRNA summed score (-2 to +2) = -1; mean protection from cisplatin (shift in death) (%) = -2.9. Against LOC401607, the values are two-siRNA summed score (-2 to +2) = 0; mean protection from cisplatin (shift in death) (%) = 4. Depletion of ACTR1A (actin related protein 1A) came out at: two-siRNA summed score (-2 to +2) = 1; mean protection from cisplatin (shift in death) (%) = 19.4. For CDKL4 (cyclin dependent kinase like 4) the deposit lists two-siRNA summed score (-2 to +2) = 1; mean protection from cisplatin (shift in death) (%) = 6.7.

DDIT4 (DNA damage inducible transcript 4) gave two-siRNA summed score (-2 to +2) = 0; mean protection from cisplatin (shift in death) (%) = -6.1. DUSP15 (dual specificity phosphatase 15) scored two-siRNA summed score (-2 to +2) = 0; mean protection from cisplatin (shift in death) (%) = 4. SUCLG2P2 (SUCLG2 pseudogene 2) showed two-siRNA summed score (-2 to +2) = 0; mean protection from cisplatin (shift in death) (%) = 11. UGT2A1 (UDP glucuronosyltransferase family 2 member A1 complex locus) showed two-siRNA summed score (-2 to +2) = 0; mean protection from cisplatin (shift in death) (%) = 9. With knock-down of ZNF133 (zinc finger protein 133) the results were two-siRNA summed score (-2 to +2) = 0; mean protection from cisplatin (shift in death) (%) = -4.4.
